Cell number change and AC50 data for 59 compounds are collected here from PubChem BioAssay AID2685 (National Center for Advancing Translational Sciences (NCATS), 2010).

The list shows a part of the results. Further columns of the screen follow, without active or inactive calls. Compounds called inactive in the main read-out are mostly missing here. Potencies come from curve fits of mixed quality, noted in brackets.

This test in a line: qHTS Assay for Lipid Storage Modulators in Drosophila S3 Cells.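 As to Cell number change: cells counted by Cell Tracker Red CMTPX staining in the red channel.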 Particulars: BODIPY lipid droplet fluorescence, 18-24 h; for cell number change: measured here: cell count max response, cells fed with added oleic acid. A digest of the protocol:
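Laser-scanning cytometry quantifies lipid droplet accumulation (500–530 nm total intensity; droplet/cell object ratio) in oleic acid-fed (400 uM added) Drosophila S3 cells treated with a concentration series. 20 uM Triacsin C defined 100% inhibition.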
Background: qHTS replaces the single test concentration by a dilution series.

[1] abbreviates: measured here: lipid fluorescence (Fed channel) AC50, cells fed with added oleic acid.
Where [2] appears, read: measured here: cell number channel AC50, cells fed with added oleic acid.

For orientation: AC50 means the concentration giving half of the maximal activity seen. A lower AC50 goes with activity at low concentration. With `CCOC(=O)C1(Cc2cccc(OC)c2)CCN(Cc2cccc(OCC)c2O)CC1`, the cell number change is -23.7%. The AC50 under setting [1] was 0.103 µM [falling, full curve, poor fit].
With `O=C1NC(=S)N/C1=C/c1cc([N+](=O)[O-])ccc1O`, the cell number change is 47.7%. Moreover, under setting [2], the concentration at half-maximal activity (AC50) is 29.1 µM [rising, single point]. For the same compound, the AC50 under setting [1] was 0.58 µM [falling, full curve].
Take `CCN(CC(=O)Nc1ccccc1C(F)(F)F)C(=O)c1ccccc1SCC(=O)N1CCCC1`: the AC50 is, setting by setting: under setting [2], 0.461 µM [rising, full curve]; under setting [1], 20.6 µM [falling, single point].
As for `COc1ccc(-n2nnnc2SCC(=O)Nc2cccc(O)c2)cc1`, the cell number change is 9.97%.
`COc1ccc(N/C=C/C(=O)c2ccccc2)cc1`: the cell number change is -12.8%. The AC50 under setting [1] is 29.1 µM [falling, single point].
As to `Cc1cc(C)n2nc(CC(=O)NC3CCCCCC3)nc2n1`, the cell number change is -7.5%. The AC50 under setting [1] is 1.46 µM [rising, full curve, poor fit].
Turning to `COC(=O)c1ccc(N(CC(=O)NC2CCCC2)C(=O)c2ccc(C)s2)cc1`, the cell number change was -10.3%. In addition, the AC50 under setting [1] is 29.1 µM [rising, single point].
On to `Cc1ccc(Cn2nc(C)c(NC(=O)CCCn3nc(C)c([N+](=O)[O-])c3C)c2C)cc1`, for which the cell number change is -37.9%.
As to `CN1CCN(Cc2cc(=O)oc3cc4c(cc23)CCC4)CC1`, the cell number change was determined as 27.1%. Further, under setting [1], the AC50 is 4.11 µM [rising, single point].
For the compound `CC(=O)N1N=C(c2ccc(NS(=O)(=O)c3ccccc3)cc2)CC1c1ccco1` (configuration not stated), under setting [1], the AC50 is 2.59 µM [falling, full curve].
Take `CCOC(=O)N1CCC(NC(=O)c2ccc3c(c2)N(Cc2ccc(F)cc2)CCS3)CC1`: the cell number change was -50.1%. Besides, the AC50 under setting [2] is 18.4 µM [falling, partial curve, poor fit]. The AC50 under setting [1] was 0.00461 µM [falling, full curve, poor fit].
Consider `Cc1ccc(S(=O)(=O)Nc2nc(C)cc(-n3nc(C)cc3C)n2)cc1`, for which the AC50 under setting [2] is 2.91 µM [rising, single point].
`COc1ccc(-c2cc3n(n2)CCc2nc4ccccc4n2-3)cc1`: the cell number change was -49.8%. Also, under setting [2], the AC50 is 16.4 µM [falling, single point].
As for `Cc1nnc(SCCOc2ccccc2)s1`, the cell number change was -31.9%. In addition, the AC50 under setting [2] is 29.1 µM [falling, single point].
`CS(=O)(=O)Nc1ccc(C2=NN(S(C)(=O)=O)C(c3ccccc3)C2)cc1` (configuration not stated): the cell number change is -7.72%. Moreover, the AC50 under setting [2] is 0.651 µM [rising, single point].
`C=CCOc1c(Cl)cc(CNCCC)cc1Cl`: the cell number change is -8.15%. Moreover, the AC50 under setting [1] was 1.3 µM [falling, full curve, poor fit].
Turning to `COc1ccc(CNS(=O)(=O)NCc2ccc(C)cc2)cc1`, the cell number change is -24.6%. Under setting [2], the AC50 was 0.103 µM [falling, full curve, poor fit].
For `CCOC(=O)CC(NC(=O)C(CC)c1ccccc1)c1ccccc1Cl` (configuration not stated), the cell number change was -2.82%. Further, under setting [1], the AC50 is 16.4 µM [falling, single point].
`O=[N+]([O-])c1ccc(S(=O)(=O)Nc2ccc3c(c2)OCCO3)cc1`: the cell number change turned out to be 12.9%.
`Cc1ccc(C(=O)/C=C/C(=O)O)cc1`: the cell number change was -49%. Further, under setting [2], the AC50 was 20.6 µM [falling, single point]. In addition, the AC50 under setting [1] is 18.4 µM [falling, partial curve].
With `Cn1c2c(c(=O)n(C)c1=O)C(CC(=O)Nc1ccccc1)C(=O)N2` (configuration not stated), the cell number change turned out to be 57.4%. For the same compound, the AC50 under setting [2] is 29.1 µM [rising, single point].
In the case of `O=C(CSc1nncc2ccccc12)Nc1ccccc1`, the cell number change is -13.9%.
On to `Cc1ccccc1-n1c(=O)cc(N2CCCCCC2)[nH]c1=O`, for which the cell number change stood at 1.09%. The AC50 under setting [2] was 0.517 µM [falling, partial curve]. Further, the AC50 under setting [1] was 0.731 µM [falling, partial curve].
With `CC(=O)NCCc1cnc[nH]1`, the cell number change was 0.291%.
Turning to `CCn1cc(CN2CCC(C(=O)Nc3ccc(Oc4ccccc4)nc3)CC2)cn1`, the cell number change came out at 78.9%. Under setting [2], the AC50 was 25.9 µM [rising, single point].
Consider `O=C1C2=C(C(=O)c3ccccc31)C1O[C@](CCCCN3C(=O)c4ccccc4C3=O)(Cc3c1ccc1ccccc31)O2`, for which the cell number change was found to be 29.6%. The AC50 under setting [1] is 0.473 µM [rising, full curve, poor fit].
In the case of `CC1CCCCN1CC(=O)NC(c1ccccc1)c1ccccc1` (configuration not stated), the cell number change was -0.873%. For the same compound, under setting [1], the AC50 was 14.6 µM [falling, partial curve].
As to `O=C(CC(c1ccccc1)c1ccccc1)NCCOCc1ccccc1`, the cell number change was -18.1%. Further, the AC50 under setting [1] was 18.4 µM [falling, partial curve].
Take `O=C(COc1cc(Cl)c(Cl)cc1Cl)Nc1cccc(O)c1`: the cell number change is -37.6%. The AC50 under setting [2] was 23.1 µM [falling, single point]. Besides, under setting [1], the AC50 was 0.146 µM [falling, full curve, poor fit].
On to `Cc1ccccc1S(=O)(=O)Cc1ccc(C(=O)NCCCOC(C)C)o1`, for which the cell number change is 48%. For the same compound, under setting [2], the AC50 is 1.46 µM [rising, full curve]. Under setting [1], the AC50 is 1.16 µM [rising, full curve].
For `Cc1ccc(NC(=O)C2CCN(S(=O)(=O)c3c(C)noc3/C=C/N(C)C)CC2)cc1`, the cell number change is 5.66%. In addition, the AC50 under setting [1] is 18.4 µM [rising, partial curve].
On to `COc1cc(/C=N/NC(=O)C(=O)NCc2cccnc2)cc(OC)c1OC`, for which the cell number change stood at 10.9%. Further, the AC50 under setting [1] was 0.731 µM [falling, single point].
For `CC(C)OC(=O)Cn1c(-c2ccccc2)c(-c2ccccc2)nnc1=O`, the cell number change is -16%.
As to `COC(=O)c1ccccc1NC(=O)CSc1nc(NC(=O)c2ccccc2)c2c(C)c(C)oc2n1`, the cell number change was -1.42%. In addition, the AC50 under setting [1] is 0.411 µM [rising, partial curve].
Take `O=C(Nc1ccc(Cl)c(Cl)c1)Nc1ccc(N2CCCC2)c(S(=O)(=O)Nc2ccccc2Cl)c1`: the cell number change was -42.7%. The AC50 under setting [2] is 18.4 µM [falling, single point]. Further, the AC50 under setting [1] was 14.6 µM [falling, partial curve].
Regarding `Cc1cccc(OCC(=O)N/N=C/C=C/c2ccco2)c1`, the cell number change is -47%. In addition, under setting [2], the AC50 was 5.17 µM [falling, partial curve, poor fit]. Also, the concentration at half-maximal activity (AC50) under setting [1] was 0.82 µM [falling, full curve, poor fit].
With `O=C(NCCCCc1ccccc1)Nc1ccc(F)cc1`, the cell number change was found to be 40.4%. For the same compound, the AC50 under setting [2] was 0.501 µM [rising, full curve].
As to `O=S(=O)(CCN1CCOCC1)c1ccc(Oc2ccc(S(=O)(=O)CCN3CCOCC3)cc2)cc1`, the cell number change is -37.4%. The AC50 under setting [2] is 4.61 µM [falling, partial curve].
`Cc1cccc2c(=O)c(C(=O)N3CCCCCC3)c[nH]c12`: the cell number change is -0.203%.
As to `Cc1oc2c(c1C(=O)NCc1cc(C(=O)O)co1)CCCC2`, the cell number change worked out at 34.9%. In addition, the AC50 under setting [2] is 8.2 µM [rising, partial curve, poor fit]. Moreover, the AC50 under setting [1] was 0.164 µM [falling, full curve, poor fit].
As to `COc1ccc(S(=O)(=O)N(C)C)cc1NCC(=O)Nc1ccc(F)cc1F`, the cell number change stood at 16.7%. Besides, the AC50 under setting [2] is 4.61 µM [falling, single point].
For `COC(=O)[C@@]12CCCCN1[C@H](c1ccc(-c3ccc(F)cc3)cc1)[C@@H]1C(=O)N(C)C(=O)[C@@H]12`, the cell number change is -17.4%. The AC50 under setting [2] was 0.116 µM [falling, full curve, poor fit]. Besides, the AC50 under setting [1] is 9.2 µM [falling, partial curve].
`COc1ccc(-c2nnc(SCC(=O)N(Cc3ccccc3)C(C)(C)C)o2)cc1OC`: the cell number change was -33.1%. Also, the AC50 under setting [2] is 14.6 µM [falling, partial curve, poor fit]. Further, under setting [1], the AC50 was 29.1 µM [falling, partial curve, poor fit].
With `CS(=O)(=O)C1=NSC2=NC(=O)/C(=C\c3ccc(-c4ccccc4)o3)C(=N)N21`, the cell number change amounted to 13.7%. Further, the AC50 under setting [1] was 1.84 µM [rising, full curve, poor fit].
Regarding `CNc1ccccc1C(C)(C)c1cc(-c2cccc(Br)c2)no1`, under setting [1], the AC50 is 4.61 µM [falling, partial curve, poor fit].
In the case of `COc1ccc(N=C(C)C2=C(O)c3ccccc3C2=O)cc1`, the cell number change is -31.6%. For the same compound, the AC50 under setting [2] was 0.231 µM [falling, full curve, poor fit]. For the same compound, the AC50 under setting [1] is 13 µM [falling, partial curve].
With `CC(=O)c1ccccc1OCCOc1ncnc2sccc12`, the cell number change worked out at 37.9%. Under setting [2], the AC50 was 1.64 µM [rising, full curve, poor fit].
As to `Cc1ccccc1Oc1nc2c(c(=O)n(C)c(=O)n2C)n1C`, under setting [1], the AC50 was 29.1 µM [rising, partial curve, poor fit].
As for `COCCN1CCN(C(=O)c2cc(COc3ccc(F)cc3F)on2)CC1`, the cell number change turned out to be 4.95%.
As for `Cc1ccc(N(CC(=O)N2CCOCC2)S(C)(=O)=O)cc1`, the cell number change was -19.9%. Moreover, the half-maximal activity concentration (AC50) under setting [1] was 20.6 µM [falling, single point].
For the compound `Cc1cc(C)nc(N2CCN(c3nnnn3-c3ccccc3)CC2)n1`, the cell number change was determined as 30.1%. Further, under setting [2], the AC50 was 23.1 µM [rising, single point].
Consider `Cc1cc(NS(=O)(=O)c2ccc(NC(=O)C(C)Oc3ccc4c(C)cc(=O)oc4c3)cc2)no1` (configuration not stated), for which the cell number change is -3.97%. Under setting [1], the AC50 was 0.164 µM [falling, full curve].
On to `CCC(=O)c1ccc(OCC(=O)OCC(=O)NCc2cccs2)cc1`, for which the cell number change amounted to 73.9%. Besides, the AC50 under setting [2] is 29.1 µM [rising, single point]. Moreover, under setting [1], the AC50 was 20.6 µM [rising, single point].
Take `COc1ccc(OC)c(NC(=O)c2cccnc2)c1`: the cell number change is -6.93%.
For the compound `CCN(CC)S(=O)(=O)c1ccc(N2CCOCC2)c(NC(=O)c2ccc3c(c2)OCCO3)c1`, the cell number change came out at 35.1%. Besides, the AC50 under setting [2] was 29.1 µM [rising, single point].
On to `Cc1cc(Oc2ccccc2)nc(SCC(N)=O)n1`, for which the cell number change is -5.7%. Further, the AC50 under setting [2] is 0.411 µM [falling, partial curve].
Take `CC(C(=O)Nc1ccc(O)c(C(=O)O)c1)N1C(=O)/C(=C/c2cccs2)SC1=S` (configuration not stated): the cell number change was -5.19%.
With `Cc1ccccc1C(=O)NCC(c1ccco1)N1CCc2ccccc21` (configuration not stated), the cell number change stood at 41.7%. Besides, under setting [2], the concentration at half-maximal activity (AC50) is 6.51 µM [rising, partial curve].
On to `COc1ccc(Oc2nc(C(F)(F)F)nc3ccccc23)cc1`, for which the AC50 was 1.84 µM [rising, partial curve] under setting [2] and 3.26 µM [rising, partial curve, poor fit] under setting [1].
